# The list shows a part of the results.
# Chains of the proteins cited; added tags and fusions are not shown.
# UniProt Q0JBA9, entry or part of it: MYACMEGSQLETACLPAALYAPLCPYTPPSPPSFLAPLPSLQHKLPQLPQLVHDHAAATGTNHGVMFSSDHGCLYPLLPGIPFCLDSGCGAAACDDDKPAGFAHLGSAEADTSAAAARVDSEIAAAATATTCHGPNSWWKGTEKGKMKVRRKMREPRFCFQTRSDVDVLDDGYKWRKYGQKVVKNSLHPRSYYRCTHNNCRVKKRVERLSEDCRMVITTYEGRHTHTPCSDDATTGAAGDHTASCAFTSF
# Target: OsWRKY34 (Oryza sativa, UniProt Q0JBA9 1-250)
# Assay: protein-binding microarray (RPBM); PBS, 2% BSA, 51.3 ng/ul salmon testes DNA, 50 uM zinc acetate, 200 nM TF, 25 C, 1 h; high values mean tight binding
# Details: protein: recombinant; tags: N-terminal polyhistidine and DsRed monomer fusion (pET32a); label: CyDye5-dUTP incorporated in the synthesized complementary strand; 3' TTTTT single-stranded linker to array surface; dsDNA, one strand shown
# Method in brief: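 The binding signal for each feature is its fluorescence intensity in arbitrary units. An Axon 4000B scanner was used to read a custom Agilent array that had been made double-stranded with Cy5-dUTP primer extension, blocked with 2% BSA, incubated at 25 °C for 1 h with 200 nM protein in PBS, 2% BSA, salmon testes DNA and 50 µM zinc acetate, and washed. The protein was an N-terminal polyhistidine–DsRed transcription factor fusion from E. coli BL21-CodonPlus, purified on Ni–NTA.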
row,Sequence,binding signal
1,GCCATCCATCCATTCCGCGTTTTCCCCGCCCACCGGTCAACGGAGTCACCTAGTGCAG,15800 fluorescence intensity (a.u.)
2,GAGCTGCCGTTTTCTGTGATCTCCGTTGCTCAATCTAGTCCGGAGTCACCTAGTGCAG,9590 fluorescence intensity (a.u.)
3,ATCGCCGCCGCCGACGTCGCCGACGCCATCGCCAACGTTCCGGAGTCACCTAGTGCAG,8550 fluorescence intensity (a.u.)
4,CCACCACGACGGCGTCCAGCGGCGTCGCGGCGCTGGCGGTCGGAGTCACCTAGTGCAG,9960 fluorescence intensity (a.u.)
5,GGATCTCCTTCTCGTGCTCTCTCTCTCTCTCTCTCTCTCTCGGAGTCACCTAGTGCAG,11100 fluorescence intensity (a.u.)
6,CCCACCCCTGCTCGCCCGCGCACCCAGCTCACCAGCGCACCGGAGTCACCTAGTGCAG,12300 fluorescence intensity (a.u.)
7,CGTGTAGCCATAAGTTTCCGTGTCCAACATTTGACCATCTCGGAGTCACCTAGTGCAG,10700 fluorescence intensity (a.u.)
8,TTGCCTTACAAAAGGATATAGAGTTCCATCGTTTCGTTTCCGGAGTCACCTAGTGCAG,9200 fluorescence intensity (a.u.)
9,GCCCCACCCATCTCCACACTTTCCTCATCCCACGGCGCCCCGGAGTCACCTAGTGCAG,8740 fluorescence intensity (a.u.)
10,CGATCTGACTCTTAACTGCAGCTCATGATTTTCTATATATCGGAGTCACCTAGTGCAG,10300 fluorescence intensity (a.u.)
11,CCAATAACACAGGGCATCATTTTTTCGCTTATGCTTATATCGGAGTCACCTAGTGCAG,9170 fluorescence intensity (a.u.)
12,TGGGACTCTCAAATTGGTTCCTGATGCTAGAGTTTGCTTACGGAGTCACCTAGTGCAG,8370 fluorescence intensity (a.u.)
13,CCATCCCGCCGCCACCGCCGCCGCCGCCGCCTCATCCTCCCGGAGTCACCTAGTGCAG,9300 fluorescence intensity (a.u.)
14,CTACTAGGGCCTCTAGCTCACCTCTCTTCGCTTCCAATTTCGGAGTCACCTAGTGCAG,14600 fluorescence intensity (a.u.)
15,CGTTGTCACTCGGCTCGTTTTTTTATCAGTTATTCCTAAACGGAGTCACCTAGTGCAG,8380 fluorescence intensity (a.u.)
16,TCACACCCCATCTATGTTGTCGCTCCACATAGGCTAGGCCCGGAGTCACCTAGTGCAG,8350 fluorescence intensity (a.u.)
17,ACGTTGTGTTTCGCCGCTGGCTCTTAGTGCGTGGGTATACCGGAGTCACCTAGTGCAG,8770 fluorescence intensity (a.u.)
18,GTTATGTTAGGTCTGGTTTTTTGGCTGTAGCAGCAGCAGTCGGAGTCACCTAGTGCAG,8510 fluorescence intensity (a.u.)
19,CTCACACTACCATTAACGTACTCCCTCATTCCAACCAACGCGGAGTCACCTAGTGCAG,9740 fluorescence intensity (a.u.)
20,GCGCATATTTGATATGTTCATGTTTTACTGCTTAGTTTACCGGAGTCACCTAGTGCAG,8790 fluorescence intensity (a.u.)
21,AACCACGCCCACCGCCCACCACGGTGGCTCGCCGGCGCCGCGGAGTCACCTAGTGCAG,9150 fluorescence intensity (a.u.)

row,Sequence,binding signal
1,AAAGAGAGAGGTGGTTTTGTTTTGTTTGTCCGGTAATGGCCGGAGTCACCTAGTGCAG,8120 fluorescence intensity (a.u.)
2,TCCATCCGCGCATTAATCCCATTTCTGCTCGCAAGTTAATCGGAGTCACCTAGTGCAG,9930 fluorescence intensity (a.u.)
3,CACGTGCCCAACTAACACATACATTCATCATATATACACCCGGAGTCACCTAGTGCAG,8830 fluorescence intensity (a.u.)
4,CGGTAGGGCCCACATGTCTGTCGGGGTGGGCGGTGGTGGTCGGAGTCACCTAGTGCAG,10800 fluorescence intensity (a.u.)
5,ATCCATGTCCATCCATCTATCCGTCCGTCCGTCCATCCATCGGAGTCACCTAGTGCAG,11300 fluorescence intensity (a.u.)
6,TTTTCTGCCCGTATACCAATCACCCTTGAGCTCCCACTCACGGAGTCACCTAGTGCAG,10400 fluorescence intensity (a.u.)
7,ACGCCGAGTCGCGCCAACCATCCACTCCCTGTCGCGCGCCCGGAGTCACCTAGTGCAG,8400 fluorescence intensity (a.u.)
8,AGAGGGTGGCTTATGCAACGCATACTCTATTGTCCTGTGCCGGAGTCACCTAGTGCAG,9340 fluorescence intensity (a.u.)
9,CAAGATGCTACATTAAACCCGATTCAATCTTTCGCTATTTCGGAGTCACCTAGTGCAG,8770 fluorescence intensity (a.u.)
10,CGTTTGTACTGTGTGGTGGTTGGTGATTGGGTGTTGTGCCCGGAGTCACCTAGTGCAG,13900 fluorescence intensity (a.u.)
11,GTTTCATCTGTGCTTCGACTGTAATAGATCGTTTCTGTGCCGGAGTCACCTAGTGCAG,8380 fluorescence intensity (a.u.)
12,ACGATAATAGTGGGTGATATAATATTGTCTTGGCCAAAAACGGAGTCACCTAGTGCAG,8100 fluorescence intensity (a.u.)
13,AAATATTTGACGCCGTTGACTTTCTTAAACATGTTTAACTCGGAGTCACCTAGTGCAG,15700 fluorescence intensity (a.u.)
14,CTTGGACTAGTACTGGACTCTACTTCTACTGCTGCTGCGCCGGAGTCACCTAGTGCAG,8030 fluorescence intensity (a.u.)
15,TCATCTCGCATTTCACTATTTGCCACTCGTGTGTCTATGACGGAGTCACCTAGTGCAG,12200 fluorescence intensity (a.u.)
16,ACAAACCATCGTATACACGACGACTCCACCTATCTCGGCACGGAGTCACCTAGTGCAG,8430 fluorescence intensity (a.u.)
17,ACGTGCTCAGTCATCATCCTCATGGCCGTTCCTTGCCGAACGGAGTCACCTAGTGCAG,8060 fluorescence intensity (a.u.)
18,CTGCCACCATTCGCCATTGGATCCTGAATTTGATTCCAACCGGAGTCACCTAGTGCAG,11800 fluorescence intensity (a.u.)
19,GCGCCGTCGTTCGTCCCTGCTGCTTCCGCCGTCGCATCCCCGGAGTCACCTAGTGCAG,8900 fluorescence intensity (a.u.)
20,TGATTGTCAAGGTTTTCTTTTGATTGTTCTCACTCTATTCCGGAGTCACCTAGTGCAG,8200 fluorescence intensity (a.u.)
21,AAGGGAGAGGGGAGAGATGGTGCTGCCGTGCCGAGCTCTTCGGAGTCACCTAGTGCAG,8590 fluorescence intensity (a.u.)

# Three entries from above, bar-delimited.
row | Sequence | binding signal
5 | ATCCATGTCCATCCATCTATCCGTCCGTCCGTCCATCCATCGGAGTCACCTAGTGCAG | 11300 fluorescence intensity (a.u.)
11 | GTTTCATCTGTGCTTCGACTGTAATAGATCGTTTCTGTGCCGGAGTCACCTAGTGCAG | 8380 fluorescence intensity (a.u.)
20 | TGATTGTCAAGGTTTTCTTTTGATTGTTCTCACTCTATTCCGGAGTCACCTAGTGCAG | 8200 fluorescence intensity (a.u.)

# Additional results follow.

row,Sequence,binding signal
1,AGCTTGATACCTATGCATGAATTAATTGATTTTCTATTTCCGGAGTCACCTAGTGCAG,8840 fluorescence intensity (a.u.)
2,CGTGCACACTCACTATGTTTGAAAGACTGGCACTTCATATCGGAGTCACCTAGTGCAG,8300 fluorescence intensity (a.u.)
3,GCCCCGAGCCGAGACCGCTGGATAATGCAGCGCTTCTTACCGGAGTCACCTAGTGCAG,20100 fluorescence intensity (a.u.)
4,GGTTTCGTTGGTGGGGTTTTTTCATGGTGGCTAGGGTTTTCGGAGTCACCTAGTGCAG,51100 fluorescence intensity (a.u.)
5,CCGCCTCACCACTCGGATAAACACACACACACACACACACCGGAGTCACCTAGTGCAG,9680 fluorescence intensity (a.u.)
6,TTCTTCCTGATCTGCAGAGCTGCAGTCTCAGTCTGTCCTGCGGAGTCACCTAGTGCAG,8560 fluorescence intensity (a.u.)
7,ACCTGCATCCTCTAATCCCCGCGTGGGCGGCGCCTTGTCTCGGAGTCACCTAGTGCAG,8170 fluorescence intensity (a.u.)
8,GTAATTTTGTCTTTTCTATTTCTCAATGTGTAGGTTGAATCGGAGTCACCTAGTGCAG,9450 fluorescence intensity (a.u.)
9,ATCAATGACTCACATGTGCTGCCCACATGCACGTACTTAACGGAGTCACCTAGTGCAG,8710 fluorescence intensity (a.u.)
10,CAACTGATTGGTCTCACACCCGACCTAACGGCTAACGCAACGGAGTCACCTAGTGCAG,8130 fluorescence intensity (a.u.)
11,TTTTTTTTGCCACGTCACATGCTGTTCATCTGAGCAAACGCGGAGTCACCTAGTGCAG,8700 fluorescence intensity (a.u.)
12,TCTCCTTCCCCGGCAGTTATCTCTCCACCACACCTTTACTCGGAGTCACCTAGTGCAG,10000 fluorescence intensity (a.u.)
13,ATGTTAGATGAGTGTTTGGTTGGCTTCCACAAGTGTGGTACGGAGTCACCTAGTGCAG,10900 fluorescence intensity (a.u.)
14,GAGAGGAGGGGCGTTGCCAGGGAGAAGAGGGGTTGCGGGGCGGAGTCACCTAGTGCAG,10600 fluorescence intensity (a.u.)
15,AGAGCGTATATTCTTCTATTATACTCCCTCCGTTTTGAGTCGGAGTCACCTAGTGCAG,8910 fluorescence intensity (a.u.)
16,AATTCTCCTCTCACCGCCTCTCTTCTCTAACCAAAGTCTACGGAGTCACCTAGTGCAG,9400 fluorescence intensity (a.u.)
17,TTGACGGACTCTATCGATCTGTAATCTTCTGCATCAGATTCGGAGTCACCTAGTGCAG,9270 fluorescence intensity (a.u.)
18,TTTTTTTTCGCGAACTGAACACACCCTAAACTGAGCCTTTCGGAGTCACCTAGTGCAG,10300 fluorescence intensity (a.u.)
19,CGAGGTATATAACTATATATATAGGGCGGGTACCATTCTTCGGAGTCACCTAGTGCAG,13700 fluorescence intensity (a.u.)
20,TTTTTTTTCATTGTTTTTTTTGTTGTTTTGCGTATCTTAGCGGAGTCACCTAGTGCAG,11200 fluorescence intensity (a.u.)
21,TTTGATTCGTGACAGGTGGTAGGAGAGCTAATTGTTCCTGCGGAGTCACCTAGTGCAG,8630 fluorescence intensity (a.u.)

row,Sequence,binding signal
1,TTCCGTGTGATCACTCATAGCTGTTCGCCTCATCGCCTATCGGAGTCACCTAGTGCAG,9960 fluorescence intensity (a.u.)
2,GCGGGTTGGGTAGTGTACACTAGTGTTTGTTTGCTTCGAGCGGAGTCACCTAGTGCAG,11600 fluorescence intensity (a.u.)
3,GGAGGTGCAGGGGTGCGGGGATTGGGAGGGGATGCTGGAGCGGAGTCACCTAGTGCAG,14500 fluorescence intensity (a.u.)
4,GTTCTAGTTGCTTGTACCAGTAGTACTTTCATTTCTCACCCGGAGTCACCTAGTGCAG,9140 fluorescence intensity (a.u.)
5,ATGTAGATTCTATCTCGATTTTCACTATTACGTTTCGAAACGGAGTCACCTAGTGCAG,8480 fluorescence intensity (a.u.)
6,GTACCTCTGTCAACCGAACCCGTTGGAGTTGCAGCTTTGCCGGAGTCACCTAGTGCAG,8080 fluorescence intensity (a.u.)
7,ACATTTTTTTCTCTCGTTTTGAGAATTGAGAAACCTTTTTCGGAGTCACCTAGTGCAG,9480 fluorescence intensity (a.u.)
8,TTGGAGGGGCGAGGTCAGCTGGGGTGTCAAATATGTAAAGCGGAGTCACCTAGTGCAG,10600 fluorescence intensity (a.u.)
9,GCCCCAACTAATCCGCTTTGATTTCAGCGTGTGTTTCGATCGGAGTCACCTAGTGCAG,13900 fluorescence intensity (a.u.)
10,TGTGGCTTTTTTGACTAGGTCTTCACCCCACGTGGCATTGCGGAGTCACCTAGTGCAG,12200 fluorescence intensity (a.u.)
11,TGGCAAGTCACCAAGTTGGAACCAAATCATTCGTTGTTTTCGGAGTCACCTAGTGCAG,8120 fluorescence intensity (a.u.)
12,GTTTTTTTGCCTCTGACCATTGAATCGCCTTGAGATTTTTCGGAGTCACCTAGTGCAG,9360 fluorescence intensity (a.u.)
13,TTCTGAATGTGATTGAATTAATTGGACTTGCGTTGACCTTCGGAGTCACCTAGTGCAG,11700 fluorescence intensity (a.u.)
14,TACCGAACCTTTGGCATATTGACCCTTTTGGCCTTTTATACGGAGTCACCTAGTGCAG,12200 fluorescence intensity (a.u.)
15,GATTAGAATCCGGGTGGGCTGTTTCCACCACAAGAAACTACGGAGTCACCTAGTGCAG,8990 fluorescence intensity (a.u.)
16,TGCCAAGTTTCTTCTCGCTCGTTCTGTTTTGATCGGCTAACGGAGTCACCTAGTGCAG,9560 fluorescence intensity (a.u.)
17,CTCTCTTCTTTTTATCTTATTCATATGTATTTATAGCTGACGGAGTCACCTAGTGCAG,10500 fluorescence intensity (a.u.)
18,CGTCATTTCCGTTTGGTGTTGTTGGTCACCCGAGTTGCAACGGAGTCACCTAGTGCAG,8820 fluorescence intensity (a.u.)
19,TATACTATTTCTTTCTTTTCCACCGTTGACGTTTTAGAACCGGAGTCACCTAGTGCAG,10400 fluorescence intensity (a.u.)
20,ACACCTCGCGACGACGACACACATGACACATATCCGTCCACGGAGTCACCTAGTGCAG,8740 fluorescence intensity (a.u.)
21,ATGTTTGCTAATCTTTTTTTTGGTGTTTTTCTCCTTGTGACGGAGTCACCTAGTGCAG,10200 fluorescence intensity (a.u.)

# Reference: paper PMC7819943, “Rice protein-binding microarrays: a tool to detect cis-acting elements near promoter regions in rice”
